Measurements taken from patent US7655600B2, “1-(azolin-2-yl)amino-1,2-diphenylethane compounds for combating insects, arachnids and nematodes” (BASF Aktiengesellschaft, priority 2003, dated 2010).
Some of these results come from one statement about several compounds together. For part of these data: For at least one compound, name, drawing or mass did not settle the structure.

What was measured:
Assay type in all cases: in vivo
[1] = tested on: Myzus persicae; conditions: 300 ppm; pepper leaves dipped; aphid mortality after 5 days
[2] = tested on: Aphis gossypii; conditions: 300 ppm; cotton cotyledons dipped; aphid mortality after 5 days
[3] = tested on: Aphis fabae; conditions: 300 ppm; nasturtium foliage and stem dipped; aphid mortality after 3 days

## Clc1ccc(CC(NC2=NCCS2)c2ccccc2)cc1 (stereo not drawn) [Example 15]
[1]
  mortality in comparison with untreated controls: over 80%

## Cc1ccc(CC(NC2=NCCS2)c2cccc(Cl)c2Cl)c(C)c1 (stereo not drawn) [Example 142]
[2]
  mortality in comparison with untreated controls: over 80%

## Cc1ccc(CC(NC2=NCCS2)c2cccc(Cl)c2Cl)cc1 (stereo not drawn) [Example 163]
[2]
  mortality in comparison with untreated controls: over 80%

## Cc1cccc(CC(NC2=NCCO2)c2ccccc2)c1 (stereo not drawn) [Example 125]
[1]
  mortality in comparison with untreated controls: over 80%

## Cc1cccc(CC(NC2=NCCS2)c2cccc(F)c2F)c1 (stereo not drawn) [Example 122]
[1]
  mortality in comparison with untreated controls: over 80%

## COc1cc(OC)cc(C(Cc2ccccc2)NC2=NCCO2)c1 (stereo not drawn) [Example 23]
[1]
  mortality in comparison with untreated controls: over 80%

## Cc1cccc(CC(NC2=NCCO2)c2cccc(Cl)c2Cl)c1 (stereo not drawn) [Example 159]
[2]
  mortality in comparison with untreated controls: over 80%

## Cc1cccc(CC(NC2=NCCS2)c2cccc(Cl)c2)c1 (stereo not drawn) [Example 98]
[1]
  mortality in comparison with untreated controls: over 80%

## Clc1cccc(CC(NC2=NCCS2)c2ccccc2)c1 (stereo not drawn) [Example 5]
[1]
  mortality in comparison with untreated controls: over 80%

## COc1ccccc1C(Cc1cccc(C)c1)NC1=NCCS1 (stereo not drawn) [Example 99]
[1]
  mortality in comparison with untreated controls: over 80%

## Fc1ccccc1CC(NC1=NCCO1)c1ccccc1 (stereo not drawn) [Example 34]
[1]
  mortality in comparison with untreated controls: over 80%

## Brc1ccc(CC(NC2=NCCS2)c2ccccc2)cc1 (stereo not drawn) [Example 56]
[1]
  mortality in comparison with untreated controls: over 80%

## Clc1cccc(CC(NC2=NCCS2)c2cccc(Cl)c2)c1 (stereo not drawn) [Example 71]
[1]
  mortality in comparison with untreated controls: over 80%

## Cc1cccc(CC(NC2=NCCS2)c2ccc(Cl)c(Cl)c2)c1 (stereo not drawn) [Example 157]
[1]
  mortality in comparison with untreated controls: over 80%

## Clc1cccc(Cl)c1CC(NC1=NCCO1)c1ccccc1 (stereo not drawn) [Example 44]
[1]
  mortality in comparison with untreated controls: over 80%

## Cc1cccc(CC(NC2=NCCO2)c2cc(F)cc(F)c2)c1 (stereo not drawn) [Example 162]
[2]
  mortality in comparison with untreated controls: over 80%
[3]
  mortality in comparison with untreated controls: over 80%

## Cc1cccc(CC(NC2=NCCO2)c2ccc(Cl)cc2F)c1 (stereo not drawn) [Example 137]
[1]
  mortality in comparison with untreated controls: over 80%

## COc1cccc(C(Cc2cccc(C)c2)NC2=NCCS2)c1OC (stereo not drawn) [Example 119]
[1]
  mortality in comparison with untreated controls: over 80%

## Cc1ccc(CC(NC2=NCCO2)c2cccc(Cl)c2Cl)cc1 (stereo not drawn) [Example 136]
[1]
  mortality in comparison with untreated controls: over 80%

## CC1CN=C(NC(Cc2ccccc2)c2ccccc2)O1 (stereo not drawn) [Example 30]
[1]
  mortality in comparison with untreated controls: over 80%

## CN1CCOC1=NC(Cc1cccc(F)c1)c1ccccc1 (stereo not drawn) [Example 49]
[1]
  mortality in comparison with untreated controls: over 80%

## Cc1cccc(CC(NC2=NCCO2)c2cc(Br)cc(Br)c2)c1 (stereo not drawn) [Example 144]
[2]
  mortality in comparison with untreated controls: over 80%
[1]
  mortality in comparison with untreated controls: over 80%

## Cc1cccc(CC(NC2=NCCS2)c2cc(Br)ccc2F)c1 (stereo not drawn) [Example 164]
[1]
  mortality in comparison with untreated controls: over 80%

## Cc1cccc(CC(NC2=NCCS2)c2cccc(C(F)(F)F)c2Cl)c1 (stereo not drawn) [Example 133]
[2]
  mortality in comparison with untreated controls: over 80%

## Cc1cccc(CC(NC2=NCCS2)c2cccc(C(F)(F)F)c2F)c1 (stereo not drawn) [Example 132]
[2]
  mortality in comparison with untreated controls: over 80%
[1]
  mortality in comparison with untreated controls: over 80%

## Clc1ccccc1C(Cc1ccccc1)NC1=NCCS1 (stereo not drawn) [Example 81]
[1]
  mortality in comparison with untreated controls: over 80%

## CC=CCOc1ccccc1C(Cc1ccccc1)NC1=NCCS1 (stereo not drawn) [Example 108]
[1]
  mortality in comparison with untreated controls: over 80%

## Fc1ccc(C(Cc2ccccc2Cl)NC2=NCCS2)cc1 (stereo not drawn) [Example 53]
[2]
  mortality in comparison with untreated controls: over 80%

## Cc1cccc(CC(NC2=NCC(C)S2)c2ccccc2)c1 (stereo not drawn) [Example 16]
[1]
  mortality in comparison with untreated controls: over 80%

## Cc1cccc(CC(NC2=NCCS2)c2cc(Br)cc(Br)c2)c1 (stereo not drawn) [Example 147]
[2]
  mortality in comparison with untreated controls: over 80%

## Fc1c(Cl)cccc1C(Cc1ccccc1)NC1=NCCS1 (stereo not drawn) [Example 130]
[1]
  mortality in comparison with untreated controls: over 80%

## FC(F)(F)c1cccc(CC(NC2=NCCO2)c2ccccc2)c1 (stereo not drawn) [Example 93]
[3]
  mortality in comparison with untreated controls: over 80%

## Cc1ccccc1CC(NC1=NCCS1)c1ccccc1 (stereo not drawn) [Example 54]
[1]
  mortality in comparison with untreated controls: over 80%

## Cc1c(F)cccc1C(Cc1ccccc1)NC1=NCCS1 (stereo not drawn) [Example 115]
[1]
  mortality in comparison with untreated controls: over 80%

## COc1cccc(C(Cc2cccc(C)c2)NC2=NCCS2)c1 (stereo not drawn) [Example 101]
[2]
  mortality in comparison with untreated controls: over 80%
[1]
  mortality in comparison with untreated controls: over 80%

## CC1COC(NC(Cc2ccccc2)c2ccccc2)=N1 (stereo not drawn) [Example 33]
[1]
  mortality in comparison with untreated controls: over 80%

## Fc1cccc(C(Cc2ccccc2)NC2=NCCS2)c1F (stereo not drawn) [Example 114]
[2]
  mortality in comparison with untreated controls: over 80%

## Fc1cccc(-c2cccc(CC(NC3=NCCS3)c3ccccc3)c2)c1 (stereo not drawn) [Example 63]
[1]
  mortality in comparison with untreated controls: over 80%

## COc1ccc(C(Cc2cccc(C)c2)NC2=NCCS2)cc1 (stereo not drawn) [Example 100]
[2]
  mortality in comparison with untreated controls: over 80%

## Cc1cccc(CC(NC2=NCCS2)c2ccc(Cl)cc2Cl)c1 (stereo not drawn) [Example 156]
[1]
  mortality in comparison with untreated controls: over 80%

## Cc1cccc(CC(NC2=NCCS2)c2cc(F)c(F)cc2F)c1 (stereo not drawn) [Example 141]
[1]
  mortality in comparison with untreated controls: over 80%

## Clc1ccc(CC(NC2=NCCO2)c2ccccc2)c(Cl)c1 (stereo not drawn) [Example 27]
[1]
  mortality in comparison with untreated controls: over 80%

## Clc1cccc(C(Cc2ccccc2)NC2=NCCS2)c1 (stereo not drawn) [Example 82]
[2]
  mortality in comparison with untreated controls: over 80%

## Clc1cccc(C(Cc2ccccc2)NC2=NCCS2)c1Cl (stereo not drawn) [Example 70]
[2]
  mortality in comparison with untreated controls: over 80%
[1]
  mortality in comparison with untreated controls: over 80%

## COC(=O)N1CCSC1=NC(Cc1cccc(Cl)c1)c1ccccc1 (stereo not drawn) [Example 45, [2-(3-Chlorophenyl)-1-phenylethylimino]-thiazolidine-3-carboxylic acid methyl ester]
[2]
  mortality in comparison with untreated controls: over 80%
[1]
  mortality in comparison with untreated controls: over 80%

## CC1CN=C(NC(Cc2cccc(Cl)c2)c2ccccc2)O1 (stereo not drawn) [Example 38]
[1]
  mortality in comparison with untreated controls: over 80%

## Clc1cc(Cl)cc(CC(NC2=NCCS2)c2ccccc2)c1 (stereo not drawn) [Example 61]
[2]
  mortality in comparison with untreated controls: over 80%

## FC(F)(F)c1cccc(C(Cc2ccccc2)NC2=NCCS2)c1Cl (stereo not drawn) [Example 124]
[2]
  mortality in comparison with untreated controls: over 80%

## Cc1cccc(CC(NC2=NCCS2)c2c(F)cccc2Cl)c1 (stereo not drawn) [Example 155]
[2]
  mortality in comparison with untreated controls: over 80%

## Cc1cccc(CC(NC2=NCCO2)c2c(F)cccc2Cl)c1 (stereo not drawn) [Example 161]
[1]
  mortality in comparison with untreated controls: over 80%

## CCOc1ccccc1C(Cc1ccccc1)NC1=NCCS1 (stereo not drawn) [Example 76]
[1]
  mortality in comparison with untreated controls: over 80%

## Cc1cccc(CC(NC2=NCCS2)c2cccc(Cl)c2Cl)c1 (stereo not drawn) [Example 66]
[3]
  mortality in comparison with untreated controls: over 80%

## Brc1ccccc1C(Cc1ccccc1)NC1=NCCS1 (stereo not drawn) [Example 91]
[1]
  mortality in comparison with untreated controls: over 80%

## Cc1ccc(C(Cc2cccc(C)c2)NC2=NCCS2)cc1 (stereo not drawn) [Example 118]
[2]
  mortality in comparison with untreated controls: over 80%

## Cc1cccc(CC(NC2=NCCS2)c2cccc(Cl)c2F)c1 (stereo not drawn) [Example 134]
[2]
  mortality in comparison with untreated controls: over 80%

## CCc1ccc(C(Cc2cccc(C)c2)NC2=NCCS2)cc1 (stereo not drawn) [Example 79]
[2]
  mortality in comparison with untreated controls: over 80%

## Cc1cccc(CC(NC2=NCCS2)c2cccc(F)c2C)c1 (stereo not drawn) [Example 131]
[2]
  mortality in comparison with untreated controls: over 80%

## Cc1cccc(CC(NC2=NCCO2)c2cccc(Cl)c2Cl)c1 (stereo not drawn) [Example 102]
[1]
  mortality in comparison with untreated controls: over 80%

## Cc1cccc(CC(NC2=NCCS2)c2cc(F)cc(F)c2F)c1 (stereo not drawn) [Example 150]
[2]
  mortality in comparison with untreated controls: over 80%

## Brc1cccc(CC(NC2=NCCS2)c2ccccc2)c1 (stereo not drawn) [Example 52]
[2]
  mortality in comparison with untreated controls: over 80%
[1]
  mortality in comparison with untreated controls: over 80%

## Cc1ccc(CC(NC2=NCCS2)c2ccccc2)cc1 (stereo not drawn) [Example 51]
[2]
  mortality in comparison with untreated controls: over 80%
[1]
  mortality in comparison with untreated controls: over 80%

## Clc1ccccc1CC(NC1=NCCS1)c1ccccc1 (stereo not drawn) [Example 78]
[1]
  mortality in comparison with untreated controls: over 80%

## Cc1cccc(CC(NC2=NCCO2)c2ccc(Cl)c(Cl)c2)c1 (stereo not drawn) [Example 160]
[1]
  mortality in comparison with untreated controls: over 80%

## Cc1cccc(CC(NC2=NCCS2)c2ccccc2Cl)c1 (stereo not drawn) [Example 83]
[2]
  mortality in comparison with untreated controls: over 80%
[1]
  mortality in comparison with untreated controls: over 80%

## COc1ccc(-c2cccc(CC(NC3=NCCS3)c3ccccc3)c2)cc1 (stereo not drawn) [Example 64]
[2]
  mortality in comparison with untreated controls: over 80%

## Cc1cccc(CC(NC2=NCCS2)c2cc(Cl)ccc2Cl)c1 (stereo not drawn) [Example 146]
[3]
  mortality in comparison with untreated controls: over 80%

## COc1cc(CC(NC2=NCCS2)c2ccccc2)cc(OC)c1 (stereo not drawn) [Example 103]
[1]
  mortality in comparison with untreated controls: over 80%

## Cc1cccc(CC(NC2=NCCS2)c2cccc(C(F)(F)F)c2C)c1 (stereo not drawn) [Example 135]
[2]
  mortality in comparison with untreated controls: over 80%

## Cc1cccc(CC(NC2=NCCS2)c2cccc(C)c2C)c1 (stereo not drawn) [Example 123]
[2]
  mortality in comparison with untreated controls: over 80%
